# Results reported in PMC7819943, “Rice protein-binding microarrays: a tool to detect cis-acting elements near promoter regions in rice”.
# This is one part of the list.
# Target: T1, OsSMF1 (Oryza sativa, UniProt Q6ZLB0 1-436)
# T1 sequence: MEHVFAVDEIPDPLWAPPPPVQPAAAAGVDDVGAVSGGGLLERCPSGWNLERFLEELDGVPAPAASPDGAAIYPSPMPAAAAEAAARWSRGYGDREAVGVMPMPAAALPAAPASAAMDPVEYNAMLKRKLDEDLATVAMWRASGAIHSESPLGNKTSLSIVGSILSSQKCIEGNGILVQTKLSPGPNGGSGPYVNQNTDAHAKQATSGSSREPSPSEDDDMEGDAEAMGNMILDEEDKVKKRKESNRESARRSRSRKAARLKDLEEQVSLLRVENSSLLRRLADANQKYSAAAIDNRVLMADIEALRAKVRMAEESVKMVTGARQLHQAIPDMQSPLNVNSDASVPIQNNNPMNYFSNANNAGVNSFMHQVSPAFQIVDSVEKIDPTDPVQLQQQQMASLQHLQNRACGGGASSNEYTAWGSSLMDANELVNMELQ
# Test: protein-binding microarray (RPBM); PBS, 2% BSA, 51.3 ng/ul salmon testes DNA, 50 uM zinc acetate, 200 nM TF, 25 C, 1 h; high values mean tight binding
# Details: protein: recombinant; tags: N-terminal polyhistidine and DsRed monomer fusion (pET32a); chain copies: 2; label: CyDye5-dUTP incorporated in the synthesized complementary strand; 3' TTTTT single-stranded linker to array surface; dsDNA, one strand shown
# How it was run: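 Per-feature fluorescence intensity (arbitrary units), read on an Axon 4000B scanner, is the binding signal. Transcription factors carrying an N-terminal polyhistidine tag and DsRed fusion were expressed in E. coli BL21-CodonPlus and purified on Ni–NTA. A custom Agilent array, made double-stranded by primer extension with Cy5-dUTP and blocked with 2% BSA, was incubated with 200 nM protein in PBS, 2% BSA, salmon testes DNA and 50 µM zinc acetate at 25 °C for 1 h and then washed.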
row,Sequence,binding signal
1,AACTAAAATTCATGGACACCACGTATGTGTAAGTATGTGTCGGAGTCACCTAGTGCAG,6320 fluorescence intensity (a.u.)
2,TTTTCCCTGTTTCATTGACGTGGCATACGGTGGGTTCCACCGGAGTCACCTAGTGCAG,20600 fluorescence intensity (a.u.)
3,ACTGGCTCAGTGGTTAGTGGTGACTAGTCATCGGACTCGGCGGAGTCACCTAGTGCAG,6520 fluorescence intensity (a.u.)
4,CCTCGCCACGGCGAGGCCCTCCACGCCTGGGCGCTCAAGTCGGAGTCACCTAGTGCAG,3570 fluorescence intensity (a.u.)
5,ACCGACGAAGTGACGTGAGTCTATCAAACCTTGGGGAACCCGGAGTCACCTAGTGCAG,3980 fluorescence intensity (a.u.)
6,GGAGAGGAGGGGAAAAGAGAGAGGAGGCTGACGTGGCCACCGGAGTCACCTAGTGCAG,34100 fluorescence intensity (a.u.)
7,GTCCACGCGTGACGTGGATACAAGCGATTCGTCACCCCTCCGGAGTCACCTAGTGCAG,17100 fluorescence intensity (a.u.)
8,GCGCGGTGGTGGTGGTGGTGGTTGCTGTGGTAGCGAGGGTCGGAGTCACCTAGTGCAG,4520 fluorescence intensity (a.u.)
9,ATAGCTTGCTGCAGAATTGCTAATTAGCGCATACGCGTCACGGAGTCACCTAGTGCAG,4920 fluorescence intensity (a.u.)
10,AGAGGGAGGAGGAGGAAGGAAAGGAGAGAGGATGACCTGTCGGAGTCACCTAGTGCAG,3530 fluorescence intensity (a.u.)
11,CCCCATCCTGATGGTCAGAGTGAGCTGGAACATGTTTGCTCGGAGTCACCTAGTGCAG,4550 fluorescence intensity (a.u.)
12,ATCTCGTTGTTTTCAATGCGTAGAACTCTGTCACGACCTGCGGAGTCACCTAGTGCAG,4400 fluorescence intensity (a.u.)
13,GGTTTACACTACTACAAAACATCAAATAGGTGTCACCACTCGGAGTCACCTAGTGCAG,4120 fluorescence intensity (a.u.)
14,AAAGAAGAGCAAGGATTGATTAGGGACGATTGAATCGGGACGGAGTCACCTAGTGCAG,3150 fluorescence intensity (a.u.)
15,CCCGCCCGTGCCATCTTGCGCCGCCGCCCACCTCATGCCTCGGAGTCACCTAGTGCAG,3490 fluorescence intensity (a.u.)
16,TCCTTGCAATCGCCACATCACGTCCTTCAAGGTGTCACAACGGAGTCACCTAGTGCAG,10300 fluorescence intensity (a.u.)
17,TTATACACCTAGGTGGATGTCCACCTACGCCAATCTCCATCGGAGTCACCTAGTGCAG,4400 fluorescence intensity (a.u.)
18,TGACGGAGGTAGTCATCAAGTCATGGTTTCTGCCTATAATCGGAGTCACCTAGTGCAG,3140 fluorescence intensity (a.u.)
19,TCCAAAAGTTCTTGATGTGGCATGGTGGACATGAATTTGTCGGAGTCACCTAGTGCAG,5240 fluorescence intensity (a.u.)
20,CGACACCCTATATACCCGATGTGACACGCCAAAACTTTACCGGAGTCACCTAGTGCAG,4060 fluorescence intensity (a.u.)
21,GTGTTTGCCCACATAGGAATGAATACTAACAAGATATGCCCGGAGTCACCTAGTGCAG,28100 fluorescence intensity (a.u.)
22,ATATATTCCGTCGCGGGAGCCGACGTGTCTCGTTCCTCGTCGGAGTCACCTAGTGCAG,13700 fluorescence intensity (a.u.)
23,TATCAATAAAATAATTGATGACCTGGCAGCTTAGCTTAATCGGAGTCACCTAGTGCAG,14600 fluorescence intensity (a.u.)
24,AACTGGACTCTGGACAGGAGGGCTTGTGGTCAGCATGTCACGGAGTCACCTAGTGCAG,3430 fluorescence intensity (a.u.)
25,CCGACGCCAATAGCCCACGTCGCCGCCGCCGTCGGCCGTGCGGAGTCACCTAGTGCAG,4130 fluorescence intensity (a.u.)
26,ATATATATATATATATATATATGTGTGTGTGTGTGTGTCCCGGAGTCACCTAGTGCAG,3520 fluorescence intensity (a.u.)
27,CTCCTCCGCCGCCACTGTGTCGTCCCCGTCCCCGGCTGCCCGGAGTCACCTAGTGCAG,3620 fluorescence intensity (a.u.)

# Shown with tabs: part of the list above.
row	Sequence	binding signal
20	CGACACCCTATATACCCGATGTGACACGCCAAAACTTTACCGGAGTCACCTAGTGCAG	4060 fluorescence intensity (a.u.)
21	GTGTTTGCCCACATAGGAATGAATACTAACAAGATATGCCCGGAGTCACCTAGTGCAG	28100 fluorescence intensity (a.u.)
23	TATCAATAAAATAATTGATGACCTGGCAGCTTAGCTTAATCGGAGTCACCTAGTGCAG	14600 fluorescence intensity (a.u.)
27	CTCCTCCGCCGCCACTGTGTCGTCCCCGTCCCCGGCTGCCCGGAGTCACCTAGTGCAG	3620 fluorescence intensity (a.u.)

# Remaining list, next part:

row,Sequence,binding signal
1,CGTGCGCGCGTGCACACCAGTAAAGTGTCTACTCAGCTTCCGGAGTCACCTAGTGCAG,3940 fluorescence intensity (a.u.)
2,CTACTCGTGTACTTCCACACTCCACGCGATGACGCGACACCGGAGTCACCTAGTGCAG,9070 fluorescence intensity (a.u.)
3,AGGTGTTTGGATGGTGGGCAACACTGGGATATGGCCACCACGGAGTCACCTAGTGCAG,3720 fluorescence intensity (a.u.)
4,CGTATCATTGCCATGACGTAGTAGTAACGGACAGTATTCACGGAGTCACCTAGTGCAG,5630 fluorescence intensity (a.u.)
5,GCGCGCGCGTTGTCGTTCGTCGTCGTCTCGCTCGCCGACGCGGAGTCACCTAGTGCAG,7290 fluorescence intensity (a.u.)
6,CATTACAACAAATCTATGTGTCATCACACACATCGATCAACGGAGTCACCTAGTGCAG,5300 fluorescence intensity (a.u.)
7,TATGGATATGCCATGTCATCATTCATGCAAATCTATGATGCGGAGTCACCTAGTGCAG,8500 fluorescence intensity (a.u.)
8,TCTTTTAAATCTTGCTTCTATGCCATGTCAACGTCATGTGCGGAGTCACCTAGTGCAG,9480 fluorescence intensity (a.u.)
9,CATTAATTTTGGCATATACTCTAGCTGTCATGTTTCATTCCGGAGTCACCTAGTGCAG,3360 fluorescence intensity (a.u.)
10,ATGTGTTCAACGCCTCACACTCTAGCAGCCGCGTCAGTCACGGAGTCACCTAGTGCAG,6050 fluorescence intensity (a.u.)
11,TTGCGAGTAAAATTTGAATGATGTGGATGAATCTTAGCCGCGGAGTCACCTAGTGCAG,6260 fluorescence intensity (a.u.)
12,GTCGCCGCCGCTCCTCCACCCCACGTGCCCCTCGTGGTGGCGGAGTCACCTAGTGCAG,4350 fluorescence intensity (a.u.)
13,CGTAACAGGCTAGTGCCCTGCCCTCTGACTCATTTGCGCTCGGAGTCACCTAGTGCAG,8840 fluorescence intensity (a.u.)
14,CCTACACGACTTGTGTTTCGTCATCTTTTCTCATGTATTGCGGAGTCACCTAGTGCAG,4740 fluorescence intensity (a.u.)
15,ATGTACAAGACCTTGTAAACAAGTTTGCATGTCTCAAATACGGAGTCACCTAGTGCAG,3290 fluorescence intensity (a.u.)
16,CTGTTCAGATGAGTAACCCATTTCCACCCATCGTGCCAAGCGGAGTCACCTAGTGCAG,3600 fluorescence intensity (a.u.)
17,GCGCCGCCGCCGTCGTCTCCGCCGCCTCCGGTGGAATCCTCGGAGTCACCTAGTGCAG,23300 fluorescence intensity (a.u.)
18,CACGGTGAAATGCCGTGACGTGGAACCAACCAACCAACAGCGGAGTCACCTAGTGCAG,10400 fluorescence intensity (a.u.)
19,CATATATGCCCATCACCCCAATAAGAGTTCCGAATTAGATCGGAGTCACCTAGTGCAG,3560 fluorescence intensity (a.u.)
20,CCAACGGTCCAGATCGCTTCCACGTCCCACCTCCCTCGATCGGAGTCACCTAGTGCAG,4390 fluorescence intensity (a.u.)
21,ATCTGTTATTTTGGCCAATGTGTGCAGTCACACCAGAAGACGGAGTCACCTAGTGCAG,3880 fluorescence intensity (a.u.)
22,CCGAAAAGCCTCCCCGTCATTAGCCCGGACAGCGACCGGACGGAGTCACCTAGTGCAG,3790 fluorescence intensity (a.u.)
23,ATCGAAACACTAGGCAGGGGTAGGGAGCTACACACACATACGGAGTCACCTAGTGCAG,3550 fluorescence intensity (a.u.)
24,TGTATGCGGCAGTAGGCATAGATGGAGTTCGACCGCGCGTCGGAGTCACCTAGTGCAG,23100 fluorescence intensity (a.u.)
25,CCGTTTCCGAATCTCGAGGCGCAAGAGGCCATCGAACGGCCGGAGTCACCTAGTGCAG,38300 fluorescence intensity (a.u.)
26,TGGTTTTACTCATTCATCATGTCACACATCCACGTCGCCGCGGAGTCACCTAGTGCAG,5240 fluorescence intensity (a.u.)
27,GATCTGGGAGCGGCGTCGGCGGTGGCGGTGTCCTCCAGCGCGGAGTCACCTAGTGCAG,3460 fluorescence intensity (a.u.)
